Laboratory results taken from the supplement of paper PMC4604168 (melanoma cell lines).
The other results are listed elsewhere or left out. Repeats are few or missing, and single values can be far off.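 Cells were imaged in 1,536-well plates, and nuclei stained with an antibody against cleaved PARP were counted against all DNA-stained nuclei to give the apoptosis fraction. Screening doses were chosen to leave most cells alive, and resting and induced cleaved-PARP levels differ strongly between cell lines.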

Tested on: UACC62
Assay: cleaved PARP positive nuclei fraction relative to DMSO control; melanoma cells; higher = more apoptosis
Settings: library dose: low library concentration; 72 h

SMILES	cleaved PARP positive nuclei fraction [%]
Cc1cn(-c2cc(NC(=O)c3ccc(C)c(Nc4nccc(-c5cccnc5)n4)c3)cc(C(F)(F)F)c2)cn1 [nilotinib] + CN(c1ncccc1CNc1nc(Nc2ccc3c(c2)CC(=O)N3)ncc1C(F)(F)F)S(C)(=O)=O [PF562271] (first compound 0.2 µM, partner dose 0.08 µM)	216
CC[C@]1(O)C[C@H]2CN(CCc3c([nH]c4ccccc34)[C@@](C(=O)OC)(c3cc4c(cc3OC)N(C=O)[C@H]3[C@@](O)(C(=O)OC)[C@H](OC(C)=O)[C@]5(CC)C=CCN6CC[C@]43[C@@H]65)C2)C1 [vincristine] + COCC[n+]1c2c(n(Cc3cnccn3)c1C)C(=O)c1ccccc1C2=O [YM155] (first compound 0.0001 µM, partner dose 0.0004 µM)	556
Cc1cn(-c2cc(NC(=O)c3ccc(C)c(Nc4nccc(-c5cccnc5)n4)c3)cc(C(F)(F)F)c2)cn1 [nilotinib] + O=C(O)[C@@H]1[O][Sb](=[O])([O][Sb]2(=[O])[O][C@H]([C@H](O)CO)[C@H](O)[C@H](C(=O)O)[O]2)[O][C@H]([C@H](O)CO)[C@@H]1O [stibogluconate] (first compound 0.2 µM, partner dose 2 µM)	109
COc1cc([C@@H]2c3cc4c(cc3[C@@H](O[C@@H]3O[C@@H]5CO[C@@H](C)O[C@H]5[C@H](O)[C@H]3O)[C@H]3COC(=O)[C@H]23)OCO4)cc(OC)c1O [etoposide] + CCCCCCCCCCCCCCCCCCOP(=O)([O-])OC1CC[N+](C)(C)CC1 [Perifosine] (first compound 0.02 µM, partner dose 0.4 µM)	111
O=C(/C=C/c1cccnc1)NCCCCC1CCN(C(=O)c2ccccc2)CC1 + CS(=O)(=O)c1ccc(C(=O)Nc2ccc(Cl)c(-c3ccccn3)c2)c(Cl)c1 [vismodegib] (first compound 0.01 µM, partner dose 1 µM)	99.3
O=C(Nc1cc(C(F)(F)F)cc(C(F)(F)F)c1)c1cc(Cl)ccc1O + CCCCCCCCc1ccc(CCC(N)(CO)CO)cc1 [fingolimod] (first compound 0.016 µM, partner dose 2 µM)	63
CC[C@]1(O)C[C@H]2CN(CCc3c([nH]c4ccccc34)[C@@](C(=O)OC)(c3cc4c(cc3OC)N(C=O)[C@H]3[C@@](O)(C(=O)OC)[C@H](OC(C)=O)[C@]5(CC)C=CCN6CC[C@]43[C@@H]65)C2)C1 [vincristine] + CCCCCCCCCCCCCCCCCCOP(=O)([O-])OC1CC[N+](C)(C)CC1 [Perifosine] (first compound 0.0001 µM, partner dose 0.4 µM)	101
Cc1cc(Nc2cc(N3CCN(C)CC3)nc(Sc3ccc(NC(=O)C4CC4)cc3)n2)n[nH]1 [Tozasertib] + C#Cc1cccc(Nc2ncnc3cc(OCCOC)c(OCCOC)cc23)c1 [erlotinib] (first compound 0.006 µM, partner dose 0.8 µM)	67
Cc1cc(Nc2cc(N3CCN(C)CC3)nc(Sc3ccc(NC(=O)C4CC4)cc3)n2)n[nH]1 [Tozasertib] + CO[C@H]1C[C@@H]2CC[C@@H](C)[C@@](O)(O2)C(=O)C(=O)N2CCCC[C@H]2C(=O)O[C@H]([C@H](C)C[C@@H]2CC[C@@H](OCCO)[C@H](OC)C2)CC(=O)[C@H](C)/C=C(\C)[C@@H](O)[C@@H](OC)C(=O)[C@H](C)C[C@H](C)/C=C/C=C/C=C/1C [everolimus] (first compound 0.006 µM, partner dose 0.02 µM)	244
Cc1ccc(Nc2nccc(N(C)c3ccc4c(C)n(C)nc4c3)n2)cc1S(N)(=O)=O [Pazopanib] + C#Cc1cccc(Nc2ncnc3cc(OCCOC)c(OCCOC)cc23)c1 [erlotinib] (first compound 0.4 µM, partner dose 0.8 µM)	138
CCCCCCCCCCCCCCCCCCOP(=O)([O-])OC1CC[N+](C)(C)CC1 [Perifosine] + C=C(c1ccc(C(=O)O)cc1)c1cc2c(cc1C)C(C)(C)CCC2(C)C [Bexarotene] (first compound 0.4 µM, partner dose 2 µM)	273
O=c1[nH]nc(Sc2ncc([N+](=O)[O-])s2)n1-c1ccc2c(c1)OCCO2 + Cc1cc(Nc2cc(N3CCN(C)CC3)nc(/C=C/c3ccccc3)n2)n[nH]1 [ENMD2076] (first compound 0.2 µM, partner dose 0.04 µM)	35
CCCCCCCCCCCCCCCCCCOP(=O)([O-])OC1CC[N+](C)(C)CC1 [Perifosine] + Clc1ccc(Nc2nnc(Cc3ccncc3)c3ccccc23)cc1 [vatalanib] (first compound 0.4 µM, partner dose 2 µM)	52.3
Cc1cn(-c2cc(NC(=O)c3ccc(C)c(Nc4nccc(-c5cccnc5)n4)c3)cc(C(F)(F)F)c2)cn1 [nilotinib] + Cn1nnc2c(C(N)=O)ncn2c1=O [temozolomide] (first compound 0.2 µM, partner dose 2 µM)	107
